# Data from PubChem BioAssay AID504444 (National Center for Advancing Translational Sciences (NCATS), 2011).
# Screen size: about 360,000 compounds; about 7,500 (2.1%) were called active. Inconclusive means that the source gave no clear call. Such entries were picked first, then a sample of the others. Calls come from the whole dose curve; as a rule, active = well fitted inhibition curve with a large enough effect; inconclusive = small, poorly fitted or top-dose-only effect, or effect the other way; inactive = flat fitted curve, though single readings scatter. Where the call is inconclusive, the potency comes from a doubtful curve fit.
# Test: Nrf2 qHTS screen for inhibitors; note: nearly all actives have a fitted effect of over 60% in size
# Conditions: A549 ARE-Fluc reporter, luciferase luminescence, 18-24 h; activity change, negative = inhibition: at 46 µM (top of the series)
# In short: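 Cells were seeded and rested 2 h, then exposed to compounds for 18-24 h. CellTiter-Fluor was read first as a viability measure. BugLite was added 15 min before the final luminescent read of ARE-luciferase activity in A549 cells.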
# % is set by controls: 0 for no effect and ±100 for the full control effect; potency is the fitted concentration of half-maximal effect.
SMILES,Potency,"activity change, negative = inhibition"
CC(=O)Nc1ccc(NC(=O)CSc2nnc3ccc(-c4ccc(F)cc4)nn23)cc1,"inconclusive: 7.31 µM [falling, partial curve, poor fit]",–
CCOC(=O)C1(Cc2ccc(OC)cc2)CCN(C(=O)c2cncs2)CC1,"inconclusive: 9.2 µM [activator, partial curve, poor fit]",–
CCN(CC)CCC(=O)N1C/C(=C/c2ccccc2)C(=O)/C(=C\c2ccccc2)C1,inactive,–
COc1ccc(CNC(=O)c2ccc3c(c2)CCN3S(=O)(=O)c2ccccc2)cc1,"inconclusive: 11.6 µM [falling, partial curve]",–
COc1ccc(/C=N\NC(=S)SCN2C(=O)C3CCC(C)(C2=O)C3(C)C)cc1 (stereo not drawn),"inconclusive: 1.3 µM [falling, full curve, poor fit]",–
Cc1ccccc1CNC(=O)c1ccc(Cn2c(SCc3ccccc3)nc3cccnc32)cc1,"inconclusive: 23.1 µM [falling, single point]",–
Cc1nc(Nc2ccc(F)cc2)nc(Nc2ccc(F)cc2)c1[N+](=O)[O-],"inconclusive: 20.6 µM [falling, single point]",–
COc1cccc(Nc2nc(CN3CCOCC3)nc3sc4c(c23)CCCC4)c1,"inconclusive: 16.4 µM [falling, single point]",–
CCC(=O)NC(c1ccc(F)cc1)c1cc(Cl)c2cccnc2c1O (stereo not drawn),"inconclusive: 20.6 µM [falling, partial curve, poor fit]",–
CCn1cc(C(=O)O)c(=O)c2cc(F)c(N3CCN(C(=S)NC(=O)c4cccc(F)c4)CC3)cc21,"inconclusive: 18.4 µM [falling, partial curve, poor fit]",–
C=CCN1C(=O)/C(=C\c2cc(Br)c(OCc3ccccn3)c(OC)c2)SC1=S,"inconclusive: 25.9 µM [falling, single point]",–
CCN(c1ccccc1)S(=O)(=O)c1ccc(C(=O)Nc2ccncc2)cc1,"inconclusive: 20.6 µM [falling, single point]",–
COc1cccc(NC(=O)N2CCCCCC2)c1,"inconclusive: 2.31 µM [activator, full curve]",–
CCc1ccc(C(=O)Nc2cc3c(cc2Cl)OCCCO3)cc1,"inconclusive: 23.1 µM [activator, partial curve]",–
C=CCNC(=O)c1onc(CSc2ccc(Cl)cc2)c1C(=O)O,"inconclusive: 29.1 µM [activator, single point]",–
O=C(NC(c1ccccc1)c1c(O)ccc2ccccc12)c1ccccc1Cl (stereo not drawn),"inconclusive: 18.4 µM [falling, single point]",–
Cc1ccc(SCC(=O)OC(C)C(=O)NCc2ccccc2)cc1 (stereo not drawn),"inconclusive: 9.2 µM [activator, partial curve, poor fit]",–
O=C(CCNC(=O)c1ccc([N+](=O)[O-])cc1)Nc1cccc(S(=O)(=O)N2CCCCCC2)c1,"inconclusive: 11.6 µM [falling, partial curve, poor fit]",–
O=C(NC1CCCCC1)C(=O)c1c[nH]c2ccccc12,"inconclusive: 23.1 µM [activator, single point]",–
Cc1nc(SC(C)C(=O)Nc2c(C)n(C)n(-c3ccccc3)c2=O)nc(C)c1C (stereo not drawn),"inconclusive: 29.1 µM [activator, partial curve, poor fit]",–
Cc1ccc2c(c1)cc(CN(Cc1ccc3c(c1)OCO3)S(=O)(=O)c1ccccc1)c1nnnn12,"inconclusive: 2.06 µM [activator, full curve, poor fit]",–

# Individual results from the results shown.
# COc1ccc(CNC(=O)c2ccc3c(c2)CCN3S(=O)(=O)c2ccccc2)cc1 | Potency: inconclusive: 11.6 µM [falling, partial curve]
# C=CCN1C(=O)/C(=C\c2cc(Br)c(OCc3ccccn3)c(OC)c2)SC1=S | Potency: inconclusive: 25.9 µM [falling, single point]
# O=C(NC1CCCCC1)C(=O)c1c[nH]c2ccccc12 | Potency: inconclusive: 23.1 µM [activator, single point]

# Continuation.

SMILES,Potency,"activity change, negative = inhibition"
COc1ccccc1Nc1nc(-c2ccc3c(c2)NC(=O)CO3)cs1,"inconclusive: 0.58 µM [falling, partial curve]",–
CCCOCc1cc(CN2CCN(c3ccccc3OC)CC2)c(O)c2ncccc12,"inconclusive: 23.1 µM [falling, single point]",–
COc1ccc(/C=C2/SC(=S)NC2=O)cc1OCc1ccccc1,"inconclusive: 7.31 µM [falling, partial curve]",–
Cc1ccc(CSCCNC(=O)CN(c2cccc(C)c2C)S(=O)(=O)c2ccccc2)cc1,"inconclusive: 29.1 µM [falling, single point]",–
Cc1ccc(-c2nnc(/C=C/c3ccccc3)o2)cc1,"inconclusive: 23.1 µM [activator, partial curve]",–
CCN(C(=O)c1cc(S(=O)(=O)N2CCCC2)cn1C)c1ccc(OC)cc1,inactive,–
COc1ccc(Cn2c(SCc3ccc(C(=O)NCc4cccs4)cc3)nc3ccncc32)cc1,"inconclusive: 11.6 µM [falling, partial curve, poor fit]",–
CCn1c(=O)c(C(=O)NNC(=O)c2ccccc2)c(O)c2ccccc21,"inconclusive: 16.4 µM [falling, single point]",–
O=C(NCCc1c[nH]c2ccccc12)c1cc(Cl)c2c(c1)OCO2,"inconclusive: 16.4 µM [activator, partial curve]",–
O=S(=O)(c1ccccc1)c1nc(-c2ccco2)oc1SCc1ccc(F)cc1,–,inactive: -20.8% [at 9.27 µM]
COc1ccc(C23CC4CC(CC(C4)C2)C3)cc1C(=O)NCCN(C)C,inactive,–
Cc1cccc(NC(=O)NCCN2CCCCC2)c1,"inconclusive: 0.0517 µM [activator, full curve]",–
c1ccn2cc(CSC3=NCCS3)nc2c1,inactive,–
CCOc1ccc(S(=O)(=O)NC2CCCCCC2)cc1,"inconclusive: 16.4 µM [falling, single point]",–
Oc1ccc(C[C@H]2CNC(=S)N2CC2CCCN2C[C@H](Cc2ccccc2)N2C[C@H](Cc3ccc(O)cc3)N(CC3CCCCCC3)C2=S)cc1 (stereo partly drawn),"inconclusive: 14.6 µM [falling, partial curve]",–
Nc1cccc(C(=O)N/N=C/c2ccsc2)c1,"inconclusive: 18.4 µM [activator, partial curve, poor fit]",–
CCOC(=O)c1sc2cccc(F)c2c1S(=O)(=O)Nc1ccccc1F,"inconclusive: 29.1 µM [activator, single point]",–
Cc1ccc(C)c(NC(=O)Cn2c(=O)n(CC(=O)NCCc3ccccc3)c(=O)c3ccccc32)c1,inactive,–
CCOc1cccc(C(=O)NC2=NCCS2)c1,"inconclusive: 3.26 µM [activator, full curve]",–
O=C(CCCn1c(=O)[nH]c2ccsc2c1=O)N1CCN(c2ccc(Cl)cc2)CC1,–,inactive: -18.4% [at 9.27 µM]
COc1cc(NC(=O)Cn2c([N+](=O)[O-])cnc2C)c(OC)cc1Cl,"inconclusive: 32.6 µM [activator, partial curve, poor fit]",–

SMILES,Potency,"activity change, negative = inhibition"
COc1cccc(NC(=O)CN2C(=O)CSc3ccc(S(=O)(=O)N4CCC(C)CC4)cc32)c1,"inconclusive: 20.6 µM [falling, single point]",–
NNc1nc(-c2ccccc2Cl)c2cc(Br)ccc2n1,"inconclusive: 29.1 µM [falling, single point]",–
COc1ccc(CNc2nc(-c3ccco3)nn2C(=O)c2ccccc2C)cc1,"inconclusive: 7.31 µM [activator, partial curve, poor fit]",–
Cc1ccc([N+](=O)[O-])cc1S(=O)(=O)NCC1COc2ccccc2O1 (stereo not drawn),"inconclusive: 29.1 µM [falling, single point]",–
CCc1ccc(C(=O)Nc2cccc(-c3nc4cc(C(C)C)ccc4o3)c2)cc1,"inconclusive: 2.06 µM [activator, partial curve]",–
O=C(N=C1SCC(=O)N1c1ccccc1Cl)c1ccccc1,"inconclusive: 25.9 µM [activator, single point]",–
CC(C)c1ccc(C2C3=C(CC(C)(C)CC3=O)NC3=C2C(=O)c2ccccc23)cc1 (stereo not drawn),active: 23.1 µM,–
CC(C)CCNC(=O)CCCCn1c(=O)[nH]c2ccsc2c1=O,"inconclusive: 18.4 µM [activator, partial curve, poor fit]",–
CCn1cc(C(=O)NCc2ccccc2Cl)c(=O)c2cc(S(=O)(=O)N3CCCCCC3)ccc21,inactive,–
Cc1cc(OCc2cc(C(=O)NCc3cc(C(C)C)no3)no2)cc(C)c1Cl,"inconclusive: 2.91 µM [activator, partial curve]",–
CCOc1ccc(Nc2oc(-c3ccc(COc4ccc(C)cc4)o3)nc2C#N)cc1,inactive,–
CCn1c(=O)c(C(=O)NCCc2ccccc2)c(O)c2ccccc21,"inconclusive: 0.326 µM [activator, full curve, poor fit]",–
O=C(Cc1c[nH]c2ccccc12)N/N=C/c1ccccc1O,inactive,–
COc1ccc(CNC(=O)CSCc2ccccc2Cl)cc1,"inconclusive: 13 µM [activator, partial curve, poor fit]",–
Cc1ccc(NC(=O)C2CCCN(c3ncnc4onc(C)c34)C2)cc1Cl (stereo not drawn),active: 13 µM,–
CC(C)(C)n1nnnc1C(c1ccc(F)cc1)N(Cc1ccc(F)cc1)Cc1ccco1 (stereo not drawn),"inconclusive: 29.1 µM [falling, single point]",–
Cc1ccc(S(=O)(=O)c2nnn3c2nc(N2CCN(c4cccc(C)c4C)CC2)c2ccccc23)cc1C,"inconclusive: 29.1 µM [activator, single point]",–
O=C(Nc1ccc(S(=O)(=O)Nc2cnc3ccccc3n2)cc1)c1ccccc1Br,"inconclusive: 23.1 µM [falling, partial curve, poor fit]",–
CCn1c(-c2ccc([N+](=O)[O-])cc2)n[nH]c1=S,"inconclusive: 3.66 µM [falling, full curve]",–
COc1ccccc1-c1cc2nc(C)c(CCC(=O)NC3CCCCC3)c(C)n2n1,inactive,–
O=C(Cc1c[nH]c2ccccc12)Nc1nnc(C2CC2)s1,"inconclusive: 29.1 µM [activator, single point]",–

# Reprinted at random: 2 compounds from above.
SMILES,Potency,"activity change, negative = inhibition"
C=CCNC(=O)c1onc(CSc2ccc(Cl)cc2)c1C(=O)O,"inconclusive: 29.1 µM [activator, single point]",–
COc1ccc(CNC(=O)CSCc2ccccc2Cl)cc1,"inconclusive: 13 µM [activator, partial curve, poor fit]",–
